# Results: PMC3783399
# Sequences of proteins named here, by UniProt entry; tags and fusion partners are left off.
# UniProt Q92993: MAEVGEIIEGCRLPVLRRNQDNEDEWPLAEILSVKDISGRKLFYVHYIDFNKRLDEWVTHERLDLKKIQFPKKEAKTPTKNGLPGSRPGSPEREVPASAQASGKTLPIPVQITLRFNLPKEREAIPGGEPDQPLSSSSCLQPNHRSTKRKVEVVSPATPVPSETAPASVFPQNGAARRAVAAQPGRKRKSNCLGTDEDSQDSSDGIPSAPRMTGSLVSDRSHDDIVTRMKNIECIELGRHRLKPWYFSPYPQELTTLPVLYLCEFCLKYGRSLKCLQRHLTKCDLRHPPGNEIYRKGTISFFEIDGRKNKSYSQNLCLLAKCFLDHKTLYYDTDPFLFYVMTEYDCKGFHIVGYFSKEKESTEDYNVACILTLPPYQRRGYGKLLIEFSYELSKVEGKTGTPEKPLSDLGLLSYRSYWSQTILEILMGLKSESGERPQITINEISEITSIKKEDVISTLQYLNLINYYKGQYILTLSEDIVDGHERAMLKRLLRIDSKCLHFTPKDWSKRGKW
# Results are given in words; binding and its absence hold for the method and conditions named. Binding seen in cells or lysates may run through a third protein. Some results given as binding are weak or reduced against the parent protein; the word gives no strength. Where a sequence is shown, tags or fusion partners need not be part of it.
# Target: myc-Tip60-YN155 (Tip60 with the YN155 BiFC fragment at its C-terminus) (UniProt Q92993)
# Assay: split reporter; BiFC read by confocal microscopy in HEK293 cells cotransfected with the YC and YN fusion constructs (HA-Fe65 cotransfected for APP-YC with Tip60-YN); fluorescence maturation 10 hours at 30°C
binder,measurement,value
"HA-Fe65 (protein, UniProt O00213 1-710) MSVPSSLSQSAINANSHGGPALSLPLPLHAAHNQLLNAKLQATAVGPKDLRSAMGEGGGPEPGPANAKWLKEGQNQLRRAATAHRDQNRNVTLTLAEEASQEPEMAPLGPKGLIHLYSELELSAHNAANRGLRGPGLIISTQEQGPDEGEEKAAGEAEEEEEDDDDEEEEEDLSSPPGLPEPLESVEAPPRPQALTDGPREHSKSASLLFGMRNSAASDEDSSWATLSQGSPSYGSPEDTDSFWNPNAFETDSDLPAGWMRVQDTSGTYYWHIPTGTTQWEPPGRASPSQGSSPQEESQLTWTGFAHGEGFEDGEFWKDEPSDEAPMELGLKEPEEGTLTFPAQSLSPEPLPQEEEKLPPRNTNPGIKCFAVRSLGWVEMTEEELAPGRSSVAVNNCIRQLSYHKNNLHDPMSGGWGEGKDLLLQLEDETLKLVEPQSQALLHAQPIISIRVWGVGRDSGRERDFAYVARDKLTQMLKCHVFRCEAPAKNIATSLHEICSKIMAERRNARCLVNGLSLDHSKLVDVPFQVEFPAPKNELVQKFQVYYLGNVPVAKPVGVDVINGALESVLSSSSREQWTPSHVSVAPATLTILHQQTEAVLGECRVRFLSFLAVGRDVHTFAFIMAAGPASFCCHMFWCEPNAASLSEAVQAACMLRYQKCLDARSQASTSCLPAPPAESVARRVGWTVRRGVQSLWGSLKPKRLGAHTP",binding,binds
